In article PMC8738735:
Read-outs that look alike come from different tables or passages of the source. These are yes or no findings as the source states them, for the method shown. Binding seen in cells or lysates may run through a third protein. Some entries that bind do so weakly or less than the wild type.

Amino acid sequences for entries named in this document (tags omitted).
UniProt P63158: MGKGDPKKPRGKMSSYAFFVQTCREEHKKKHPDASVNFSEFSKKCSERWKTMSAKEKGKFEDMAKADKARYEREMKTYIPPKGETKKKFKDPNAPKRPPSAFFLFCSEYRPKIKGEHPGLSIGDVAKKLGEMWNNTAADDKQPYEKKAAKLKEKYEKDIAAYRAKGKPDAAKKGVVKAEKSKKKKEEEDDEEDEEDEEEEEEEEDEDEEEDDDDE
UniProt P45481: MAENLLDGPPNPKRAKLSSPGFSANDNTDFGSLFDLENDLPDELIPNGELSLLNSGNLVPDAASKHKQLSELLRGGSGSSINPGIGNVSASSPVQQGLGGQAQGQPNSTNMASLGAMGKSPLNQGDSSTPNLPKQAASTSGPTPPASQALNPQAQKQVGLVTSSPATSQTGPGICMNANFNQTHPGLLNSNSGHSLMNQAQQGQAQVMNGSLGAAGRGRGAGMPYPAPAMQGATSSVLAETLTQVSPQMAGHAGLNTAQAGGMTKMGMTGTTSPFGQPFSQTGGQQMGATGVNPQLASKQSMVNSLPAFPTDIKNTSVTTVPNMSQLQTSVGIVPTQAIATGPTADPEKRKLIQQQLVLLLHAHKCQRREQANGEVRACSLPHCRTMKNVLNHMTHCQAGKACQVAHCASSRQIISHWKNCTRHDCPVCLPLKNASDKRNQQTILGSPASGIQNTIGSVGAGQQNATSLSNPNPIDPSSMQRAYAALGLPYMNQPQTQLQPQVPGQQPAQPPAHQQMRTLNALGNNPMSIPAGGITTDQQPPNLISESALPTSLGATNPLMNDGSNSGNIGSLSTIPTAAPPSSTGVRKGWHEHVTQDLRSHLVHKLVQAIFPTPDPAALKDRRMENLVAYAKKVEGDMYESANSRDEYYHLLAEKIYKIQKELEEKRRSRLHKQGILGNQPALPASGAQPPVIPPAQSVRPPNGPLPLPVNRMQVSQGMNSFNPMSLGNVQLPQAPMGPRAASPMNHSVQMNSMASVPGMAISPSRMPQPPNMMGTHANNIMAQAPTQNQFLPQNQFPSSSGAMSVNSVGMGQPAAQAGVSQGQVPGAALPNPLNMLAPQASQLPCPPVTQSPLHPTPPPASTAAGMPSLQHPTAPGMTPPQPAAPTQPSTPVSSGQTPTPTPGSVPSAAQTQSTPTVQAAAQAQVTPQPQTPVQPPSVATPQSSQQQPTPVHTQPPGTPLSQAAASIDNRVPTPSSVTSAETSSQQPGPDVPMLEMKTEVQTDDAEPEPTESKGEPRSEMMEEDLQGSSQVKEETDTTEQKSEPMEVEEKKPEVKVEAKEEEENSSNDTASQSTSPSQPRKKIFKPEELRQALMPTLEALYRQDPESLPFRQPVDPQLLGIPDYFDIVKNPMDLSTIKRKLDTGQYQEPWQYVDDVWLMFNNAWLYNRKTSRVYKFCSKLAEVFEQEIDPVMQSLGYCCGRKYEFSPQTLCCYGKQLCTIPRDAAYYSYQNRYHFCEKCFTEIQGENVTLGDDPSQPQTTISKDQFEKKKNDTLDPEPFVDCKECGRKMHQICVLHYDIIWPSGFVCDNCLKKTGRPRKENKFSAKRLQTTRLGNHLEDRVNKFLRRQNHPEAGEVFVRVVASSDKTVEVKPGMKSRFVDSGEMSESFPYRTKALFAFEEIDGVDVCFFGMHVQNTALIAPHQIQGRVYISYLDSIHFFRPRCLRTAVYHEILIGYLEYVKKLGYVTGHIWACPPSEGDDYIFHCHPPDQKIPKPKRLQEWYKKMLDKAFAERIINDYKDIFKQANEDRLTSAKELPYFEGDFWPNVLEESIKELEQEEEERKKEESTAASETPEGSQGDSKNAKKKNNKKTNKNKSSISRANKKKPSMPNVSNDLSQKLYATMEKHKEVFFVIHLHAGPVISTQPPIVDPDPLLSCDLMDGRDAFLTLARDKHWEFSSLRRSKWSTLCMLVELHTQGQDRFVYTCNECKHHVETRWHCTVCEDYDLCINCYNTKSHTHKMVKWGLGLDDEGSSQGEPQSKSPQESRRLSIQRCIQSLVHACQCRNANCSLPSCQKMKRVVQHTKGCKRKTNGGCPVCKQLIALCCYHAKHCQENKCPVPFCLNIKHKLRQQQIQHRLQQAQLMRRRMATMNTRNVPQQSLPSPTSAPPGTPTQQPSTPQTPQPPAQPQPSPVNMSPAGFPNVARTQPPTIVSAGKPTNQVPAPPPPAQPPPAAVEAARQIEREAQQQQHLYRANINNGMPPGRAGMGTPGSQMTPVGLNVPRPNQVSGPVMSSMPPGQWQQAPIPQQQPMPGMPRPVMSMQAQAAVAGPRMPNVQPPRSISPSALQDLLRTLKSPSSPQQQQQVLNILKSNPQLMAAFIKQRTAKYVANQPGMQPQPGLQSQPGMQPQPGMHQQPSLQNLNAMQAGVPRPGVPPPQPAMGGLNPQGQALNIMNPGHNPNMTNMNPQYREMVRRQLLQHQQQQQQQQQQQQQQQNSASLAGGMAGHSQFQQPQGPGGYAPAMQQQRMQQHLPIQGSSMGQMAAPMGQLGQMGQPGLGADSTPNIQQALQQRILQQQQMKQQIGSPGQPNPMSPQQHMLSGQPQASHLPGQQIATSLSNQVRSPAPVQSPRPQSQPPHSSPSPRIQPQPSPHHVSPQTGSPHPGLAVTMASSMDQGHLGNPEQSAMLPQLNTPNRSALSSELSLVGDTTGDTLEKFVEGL

Columns and labels:
[1] = target: high mobility group box-1 (HMGB1) (mouse (endogenous in RAW 264.7)) (UniProt P63158); experiment: co-IP; about 200 µg of RAW 264.7 cell lysate protein precipitated with anti-HMGB1 antibody overnight at 4 °C, protein A/G-agarose beads, four washes with lysis buffer, immunoblot of the partner; cells treated with vehicle, lactic acid or sodium lactate (10 mM), for CD63 also with CHC (3 mM)
[2] = target: high mobility group box-1 (HMGB1) (mouse (endogenous in RAW 264.7)) (UniProt P63158); experiment: as above; remark: listed apart in the source

Row | Molecule | binding [1] | binding [2]
1 | CREB-binding protein (CBP) (from UniProt P45481 1-2441) (enzyme) | binds | –
2 | Lamp1 (protein, UniProt P11438 25-406) LFEVKNNGTTCIMASFSASFLTTYETANGSQIVNISLPASAEVLKNGSSCGKENVSDPSLTITFGRGYLLTLNFTKNTTRYSVQHMYFTYNLSDTEHFPNAISKEIYTMDSTTDIKADINKAYRCVSDIRVYMKNVTVVLRDATIQAYLSSGNFSKEETHCTQDGPSPTTGPPSPSPPLVPTNPTVSKYNVTGNNGTCLLASMALQLNITYLKKDNKTVTRAFNISPNDTSSGSCGINLVTLKVENKNRALELQFGMNASSSLFFLQGVRLNMTLPDALVPTFSISNHSLKALQATVGNSYKCNTEEHIFVSKMLSLNVFSVQVQAFKVDSDRFGSVEECVQDGNNMLIPIAVGGALAGLVLIVLIAYLIGRKRSHAGYQTI | – | binds
3 | CD63 (protein, UniProt P41731 1-238) MAVEGGMKCVKFLLYVLLLAFCACAVGLIAIGVAVQVVLKQAITHETTAGSLLPVVIIAVGAFLFLVAFVGCCGACKENYCLMITFAIFLSLIMLVEVAVAIAGYVFRDQVKSEFNKSFQQQMQNYLKDNKTATILDKLQKENNCCGASNYTDWENIPGMAKDRVPDSCCINITVGCGNDFKESTIHTQGCVETIAIWLRKNILLVAAAALGIAFVEVLGIIFSCCLVKSIRSGYEVM | – | binds
